Results as given in article PMC8384837.
Numbering of substitutions follows the chain as printed. Some of the results follow. For some assays here: At the low end of the ranking the order means little.

Experiments:
Settings in all cases: yeast three-hybrid, YBZ-1, SC-Leu-His + 0.5 mM 3-AT, 4 days
[1] = target: T1, PUM1 PUF domain R2-VFQ R3-THE R4-TFR N899V + Y900F + C935T + R936H + Q939E + N971T + H972F + Q975R (UniProt Q14671)
T1 sequence: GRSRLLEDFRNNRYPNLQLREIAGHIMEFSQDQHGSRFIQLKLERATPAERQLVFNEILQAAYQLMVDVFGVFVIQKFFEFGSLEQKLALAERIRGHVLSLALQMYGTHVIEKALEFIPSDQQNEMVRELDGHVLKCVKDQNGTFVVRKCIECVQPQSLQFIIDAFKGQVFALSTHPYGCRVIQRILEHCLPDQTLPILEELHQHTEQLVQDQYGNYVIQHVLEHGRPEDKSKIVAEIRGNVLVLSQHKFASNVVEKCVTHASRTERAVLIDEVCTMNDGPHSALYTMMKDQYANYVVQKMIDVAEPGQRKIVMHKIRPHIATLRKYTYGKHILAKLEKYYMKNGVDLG

[2] = target: T2, PUM1 PUF domain R3-THE R4-TFR C935T + R936H + Q939E + N971T + H972F + Q975R (UniProt Q14671)
T2 sequence: T1 sequence with V72N, F73Y

[3] = target: T3, PUM1 PUF domain R3-THE R4-TFR R7-NPG C935T + R936H + Q939E + N971T + H972F + Q975R + S1079N + N1080P + E1083G (Homo sapiens) (UniProt Q14671)
T3 sequence: T1 sequence with V72N, F73Y, S252N, N253P, E256G

| Sequence | binding signal (log2 enrichment (interaction score)) [1] | binding signal (log2 enrichment (interaction score)) [2] | binding signal (log2 enrichment (interaction score)) [3] |
| --- | --- | --- | --- |
| GGCUAGAACUAGUGGAUCCCCCGGCGCCCGGCGGCUCGAGCCCGGGUAAGUUUACGCUGUCUGCAUGCCGCCGGGCGCCAUGCCUGCAGGUCGACUCUAGAAAACAUG | -6.03 | -6.8 | – |
| GGCUAGAACUAGUGGAUCCCCCGGCGCCCGGCGGCUCGAGCCCGGGUAAGUUUACAGGGUCUGCAUGCCGCCGGGCGCCAUGCCUGCAGGUCGACUCUAGAAAACAUG | -5.51 | -7.15 | – |
| GGCUAGAACUAGUGGAUCCCCCGGCGCCCGGCGGCUCGAGCCCGGGUAAGAUGACAUAGUCUGCAUGCCGCCGGGCGCCAUGCCUGCAGGUCGACUCUAGAAAACAUG | -5.14 | -5.23 | – |
| GGCUAGAACUAGUGGAUCCCCCGGCGCCCGGCGGCUCGAGCCCGGGUAAGAUGAAGGAGUCUGCAUGCCGCCGGGCGCCAUGCCUGCAGGUCGACUCUAGAAAACAUG | -5.69 | -7.06 | -0.85 |
| GGCUAGAACUAGUGGAUCCCCCGGCGCCCGGCGGCUCGAGCCCGGGUAAGUUUACUGAGUCUGCAUGCCGCCGGGCGCCAUGCCUGCAGGUCGACUCUAGAAAACAUG | -5.48 | < -6.14 | – |
| GGCUAGAACUAGUGGAUCCCCCGGCGCCCGGCGGCUCGAGCCCGGGUAAGUAGAUUUAGUCUGCAUGCCGCCGGGCGCCAUGCCUGCAGGUCGACUCUAGAAAACAUG | -4.92 | -7.59 | – |
| GGCUAGAACUAGUGGAUCCCCCGGCGCCCGGCGGCUCGAGCCCGGGUAAGUGCAAGUGGUCUGCAUGCCGCCGGGCGCCAUGCCUGCAGGUCGACUCUAGAAAACAUG | -5.61 | -7.21 | – |
| GGCUAGAACUAGUGGAUCCCCCGGCGCCCGGCGGCUCGAGCCCGGGUAAGGUUGCGCCGUCUGCAUGCCGCCGGGCGCCAUGCCUGCAGGUCGACUCUAGAAAACAUG | -5.62 | -7.11 | – |
| GGCUAGAACUAGUGGAUCCCCCGGCGCCCGGCGGCUCGAGCCCGGGUAAGAGUUAGACGUCUGCAUGCCGCCGGGCGCCAUGCCUGCAGGUCGACUCUAGAAAACAUG | -5.62 | < -7.55 | – |
| GGCUAGAACUAGUGGAUCCCCCGGCGCCCGGCGGCUCGAGCCCGGGUAAGUGUAUGUGGUCUGCAUGCCGCCGGGCGCCAUGCCUGCAGGUCGACUCUAGAAAACAUG | -5.81 | -6.01 | – |
| GGCUAGAACUAGUGGAUCCCCCGGCGCCCGGCGGCUCGAGCCCGGGUAAGCGGACCACGUCUGCAUGCCGCCGGGCGCCAUGCCUGCAGGUCGACUCUAGAAAACAUG | < -5.96 | < -6.31 | – |
| GGCUAGAACUAGUGGAUCCCCCGGCGCCCGGCGGCUCGAGCCCGGGUAAGUGUACCUAGUCUGCAUGCCGCCGGGCGCCAUGCCUGCAGGUCGACUCUAGAAAACAUG | -5.41 | -3.63 | – |
| GGCUAGAACUAGUGGAUCCCCCGGCGCCCGGCGGCUCGAGCCCGGGUAAGUCUUCAAAGUCUGCAUGCCGCCGGGCGCCAUGCCUGCAGGUCGACUCUAGAAAACAUG | -5.56 | -6.81 | – |
| GGCUAGAACUAGUGGAUCCCCCGGCGCCCGGCGGCUCGAGCCCGGGUAAGUUUAUAUCGUCUGCAUGCCGCCGGGCGCCAUGCCUGCAGGUCGACUCUAGAAAACAUG | -5.93 | < -7.16 | – |
| GGCUAGAACUAGUGGAUCCCCCGGCGCCCGGCGGCUCGAGCCCGGGUAAGAUUUCAGAGUCUGCAUGCCGCCGGGCGCCAUGCCUGCAGGUCGACUCUAGAAAACAUG | -5.95 | -7.34 | – |
| GGCUAGAACUAGUGGAUCCCCCGGCGCCCGGCGGCUCGAGCCCGGGUAAGUUUACCUAGUCUGCAUGCCGCCGGGCGCCAUGCCUGCAGGUCGACUCUAGAAAACAUG | -5.62 | -6.2 | – |
| GGCUAGAACUAGUGGAUCCCCCGGCGCCCGGCGGCUCGAGCCCGGGUAAGUAGGCGAAGUCUGCAUGCCGCCGGGCGCCAUGCCUGCAGGUCGACUCUAGAAAACAUG | -5.5 | -6.44 | – |
| GGCUAGAACUAGUGGAUCCCCCGGCGCCCGGCGGCUCGAGCCCGGGUAAGCGGGCGUAGUCUGCAUGCCGCCGGGCGCCAUGCCUGCAGGUCGACUCUAGAAAACAUG | -3.92 | < -6.25 | – |
| GGCUAGAACUAGUGGAUCCCCCGGCGCCCGGCGGCUCGAGCCCGGGUAAGUGUCUGUUGUCUGCAUGCCGCCGGGCGCCAUGCCUGCAGGUCGACUCUAGAAAACAUG | -5.49 | -8.03 | – |
| GGCUAGAACUAGUGGAUCCCCCGGCGCCCGGCGGCUCGAGCCCGGGUAAGAUAAAGUAGUCUGCAUGCCGCCGGGCGCCAUGCCUGCAGGUCGACUCUAGAAAACAUG | -5.64 | -7.72 | – |
| GGCUAGAACUAGUGGAUCCCCCGGCGCCCGGCGGCUCGAGCCCGGGUAAGAAUACGUCGUCUGCAUGCCGCCGGGCGCCAUGCCUGCAGGUCGACUCUAGAAAACAUG | -5.88 | -6.48 | – |
| GGCUAGAACUAGUGGAUCCCCCGGCGCCCGGCGGCUCGAGCCCGGGUAAGAGUUCCUUGUCUGCAUGCCGCCGGGCGCCAUGCCUGCAGGUCGACUCUAGAAAACAUG | -5.4 | -6.4 | – |
| GGCUAGAACUAGUGGAUCCCCCGGCGCCCGGCGGCUCGAGCCCGGGUAAGUAAAAGUCGUCUGCAUGCCGCCGGGCGCCAUGCCUGCAGGUCGACUCUAGAAAACAUG | < -6.53 | < -6.97 | – |
| GGCUAGAACUAGUGGAUCCCCCGGCGCCCGGCGGCUCGAGCCCGGGUAAGUGGAUCUAGUCUGCAUGCCGCCGGGCGCCAUGCCUGCAGGUCGACUCUAGAAAACAUG | -5.03 | -7.03 | – |
| GGCUAGAACUAGUGGAUCCCCCGGCGCCCGGCGGCUCGAGCCCGGGUAAGGGGAGGAUGUCUGCAUGCCGCCGGGCGCCAUGCCUGCAGGUCGACUCUAGAAAACAUG | -5.68 | < -6.81 | – |
| GGCUAGAACUAGUGGAUCCCCCGGCGCCCGGCGGCUCGAGCCCGGGUAAGGCUGCAGAGUCUGCAUGCCGCCGGGCGCCAUGCCUGCAGGUCGACUCUAGAAAACAUG | -2.86 | < -6.71 | – |

Looked up one by one from the list above:

| Sequence | binding signal (log2 enrichment (interaction score)) [1] | binding signal (log2 enrichment (interaction score)) [2] | binding signal (log2 enrichment (interaction score)) [3] |
| --- | --- | --- | --- |
| GGCUAGAACUAGUGGAUCCCCCGGCGCCCGGCGGCUCGAGCCCGGGUAAGCGGACCACGUCUGCAUGCCGCCGGGCGCCAUGCCUGCAGGUCGACUCUAGAAAACAUG | < -5.96 | < -6.31 | – |
| GGCUAGAACUAGUGGAUCCCCCGGCGCCCGGCGGCUCGAGCCCGGGUAAGCGGGCGUAGUCUGCAUGCCGCCGGGCGCCAUGCCUGCAGGUCGACUCUAGAAAACAUG | -3.92 | < -6.25 | – |
